In paper PMC5627969 one finds binding data, which are given here for one substance.

Amino acid sequences for entries named in this document (tags omitted). A change or cut given only in a name is not applied to a line headed by its entry.
UniProt Q9UKC9: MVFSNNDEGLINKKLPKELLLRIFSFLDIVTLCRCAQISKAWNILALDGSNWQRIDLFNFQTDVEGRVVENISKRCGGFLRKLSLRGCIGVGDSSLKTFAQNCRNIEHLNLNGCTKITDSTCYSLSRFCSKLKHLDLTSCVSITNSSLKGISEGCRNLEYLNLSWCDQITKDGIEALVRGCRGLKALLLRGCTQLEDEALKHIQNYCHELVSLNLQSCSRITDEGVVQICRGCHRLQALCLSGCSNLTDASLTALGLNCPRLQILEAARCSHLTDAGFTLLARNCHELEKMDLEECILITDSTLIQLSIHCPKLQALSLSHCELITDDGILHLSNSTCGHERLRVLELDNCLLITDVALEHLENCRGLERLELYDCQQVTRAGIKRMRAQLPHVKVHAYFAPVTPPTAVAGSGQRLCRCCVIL
UniProt Q14573: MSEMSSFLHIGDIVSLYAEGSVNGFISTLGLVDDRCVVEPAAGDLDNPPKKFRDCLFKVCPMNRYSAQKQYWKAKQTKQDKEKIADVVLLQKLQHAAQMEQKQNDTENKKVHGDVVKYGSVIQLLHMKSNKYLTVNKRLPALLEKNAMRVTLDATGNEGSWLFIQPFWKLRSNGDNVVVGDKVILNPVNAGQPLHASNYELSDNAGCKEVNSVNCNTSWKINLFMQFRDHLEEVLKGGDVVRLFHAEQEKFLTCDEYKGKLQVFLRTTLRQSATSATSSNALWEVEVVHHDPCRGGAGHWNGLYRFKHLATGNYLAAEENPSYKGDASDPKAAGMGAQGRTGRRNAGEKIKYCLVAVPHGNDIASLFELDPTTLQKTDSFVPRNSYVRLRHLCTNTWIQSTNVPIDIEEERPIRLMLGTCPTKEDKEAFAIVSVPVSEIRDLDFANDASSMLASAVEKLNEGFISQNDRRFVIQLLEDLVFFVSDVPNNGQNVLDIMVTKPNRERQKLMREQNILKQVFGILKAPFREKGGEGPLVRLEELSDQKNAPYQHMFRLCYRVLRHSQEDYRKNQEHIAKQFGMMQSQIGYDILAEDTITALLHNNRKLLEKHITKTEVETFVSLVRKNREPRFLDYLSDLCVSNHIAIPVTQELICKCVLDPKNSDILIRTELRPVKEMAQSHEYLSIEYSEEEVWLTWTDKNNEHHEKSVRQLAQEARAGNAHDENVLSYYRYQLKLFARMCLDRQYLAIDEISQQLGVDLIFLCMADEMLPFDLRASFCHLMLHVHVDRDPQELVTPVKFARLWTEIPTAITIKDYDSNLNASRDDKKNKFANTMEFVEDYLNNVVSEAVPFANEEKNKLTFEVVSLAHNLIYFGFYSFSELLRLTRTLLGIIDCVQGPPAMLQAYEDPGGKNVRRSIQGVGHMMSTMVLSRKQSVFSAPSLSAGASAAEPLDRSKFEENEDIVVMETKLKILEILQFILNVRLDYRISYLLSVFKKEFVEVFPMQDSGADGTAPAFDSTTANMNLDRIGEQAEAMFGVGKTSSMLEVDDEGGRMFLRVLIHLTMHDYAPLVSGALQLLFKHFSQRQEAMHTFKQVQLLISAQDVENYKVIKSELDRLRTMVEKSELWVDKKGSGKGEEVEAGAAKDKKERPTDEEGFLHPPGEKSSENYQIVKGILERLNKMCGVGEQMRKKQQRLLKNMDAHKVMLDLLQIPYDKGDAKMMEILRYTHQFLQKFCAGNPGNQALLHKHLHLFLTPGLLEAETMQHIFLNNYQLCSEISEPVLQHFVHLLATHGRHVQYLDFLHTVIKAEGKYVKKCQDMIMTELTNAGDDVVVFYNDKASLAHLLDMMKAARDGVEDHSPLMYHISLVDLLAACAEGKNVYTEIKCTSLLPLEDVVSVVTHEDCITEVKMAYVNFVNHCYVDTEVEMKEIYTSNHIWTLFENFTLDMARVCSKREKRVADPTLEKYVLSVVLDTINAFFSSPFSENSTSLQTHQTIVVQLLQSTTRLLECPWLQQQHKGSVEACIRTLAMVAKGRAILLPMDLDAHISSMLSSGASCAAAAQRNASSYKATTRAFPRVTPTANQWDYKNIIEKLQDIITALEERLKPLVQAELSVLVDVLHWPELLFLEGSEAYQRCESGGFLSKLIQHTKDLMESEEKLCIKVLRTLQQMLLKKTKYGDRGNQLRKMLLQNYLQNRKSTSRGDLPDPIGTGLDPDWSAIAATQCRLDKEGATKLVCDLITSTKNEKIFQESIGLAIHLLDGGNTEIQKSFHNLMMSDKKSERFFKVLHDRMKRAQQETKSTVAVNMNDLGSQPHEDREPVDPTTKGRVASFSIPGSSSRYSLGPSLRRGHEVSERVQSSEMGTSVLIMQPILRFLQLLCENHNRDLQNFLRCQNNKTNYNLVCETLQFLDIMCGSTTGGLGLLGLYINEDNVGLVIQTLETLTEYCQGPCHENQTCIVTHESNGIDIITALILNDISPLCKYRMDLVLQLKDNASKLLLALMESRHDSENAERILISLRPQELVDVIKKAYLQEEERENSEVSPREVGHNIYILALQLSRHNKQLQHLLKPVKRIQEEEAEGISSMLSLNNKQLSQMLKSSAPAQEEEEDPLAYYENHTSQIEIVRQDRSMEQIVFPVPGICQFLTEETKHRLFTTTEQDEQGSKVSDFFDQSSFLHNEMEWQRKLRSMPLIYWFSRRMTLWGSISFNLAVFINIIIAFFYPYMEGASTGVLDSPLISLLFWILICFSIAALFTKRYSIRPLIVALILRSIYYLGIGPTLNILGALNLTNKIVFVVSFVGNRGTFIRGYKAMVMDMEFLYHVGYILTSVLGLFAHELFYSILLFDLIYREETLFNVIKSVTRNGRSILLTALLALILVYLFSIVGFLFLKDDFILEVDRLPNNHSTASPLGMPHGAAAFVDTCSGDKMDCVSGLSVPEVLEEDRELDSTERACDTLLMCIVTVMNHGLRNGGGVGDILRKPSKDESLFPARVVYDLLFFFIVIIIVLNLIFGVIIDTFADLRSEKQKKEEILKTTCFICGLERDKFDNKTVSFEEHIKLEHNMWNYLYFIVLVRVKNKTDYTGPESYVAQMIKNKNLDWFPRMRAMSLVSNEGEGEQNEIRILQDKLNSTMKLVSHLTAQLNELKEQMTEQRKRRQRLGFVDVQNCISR

The target in the test is Flag-tagged FBXL2(ΔF-box) (human) (UniProt Q9UKC9). Put plainly: co-IP; HEK293T transfected with a Flag-tagged protein; anti-Flag immunoprecipitation; endogenous partners by immunoblot; with or without MG132 for 3 h; PTEN siRNA in one panel.

Results are given in words; binding and its absence hold for the method and conditions named. In cells and extracts the contact can be indirect. Binding calls can cover weak binding; strength is not graded here.

As for “IP3R3 (endogenous, HEK293T) (from UniProt Q14573 1-2671) (receptor)”, the binding result is on record as “binds”.
